The target in the experiment is Nicotiana benthamiana pathogenesis-related protein 10 (Nicotiana benthamiana). Briefly: two-hybrid; Matchmaker GAL4 Two-Hybrid System3 (Clontech); NbPR-10 in pGBKT7, P31 in pGADT7; S. cerevisiae AH109 and Y187; co-transformants plated on SD/-Ade/-His/-Leu/-Trp.

No constants are given. Whether binding was seen depends on the method and setting.

B1: Beet necrotic yellow vein virus RNA4-encoded P31 (protein, UniProt Q65670 1-282)
chain: MADGEICRCQVTDPPLIRHEDYDCTARMVQKRIEIGPLGVLLNLNMLFHMSRVRHIDVYPYLNNIMSISVSLDVPVSSGVGVGRVRVLIFTTSRERVGIFHGWQVVPGCFLNAPCYSGVDVLSDELCEANITNTSVSSVAMFNGSYRPEDVWILLLTSSTCYGYHDVVVDIEQCTLPSNIDGCVCCSGVCYFNDNHCFCGRRDSNPFNPPCFQFIKDCNELYGTNETKQFICDLVGDDNLDSVNTLTKEGWRRFCDVLWNTTYGDVESRTFARFLWFVFYHD
For B1, the binding result is listed as “no binding”.
